According to PubChem BioAssay AID504834 (National Center for Advancing Translational Sciences (NCATS), 2011):
Hit rate of the full screen: of about 320,000 compounds, about 22,000 (6.9%) were called active. Inconclusive results, whose numbers are uncertain, are shown with a selection of clear calls. Calls come from the whole dose curve; as a rule, active = well fitted inhibition curve with a large enough effect; inconclusive = small, poorly fitted or top-dose-only effect, or another doubt; inactive = no such curve, though single readings can be large or run the other way. A potency beside an inconclusive call is a rough fit, not a confirmed value.

Assay: Primary qHTS for delayed death inhibitors of the malarial parasite plastid, 96 hour incubation
Settings: P. falciparum luciferase reporter growth; series mostly up to 28.7 µM
Summary of the method: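 Compounds incubated with erythrocytes infected by luciferase-expressing P. falciparum (2% hematocrit, 0.05% parasitemia final) for 96 hours, 37 C in 5% CO2. Growth inhibition scored as decreased luciferase luminescence.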
Potency is the fitted concentration of half-maximal effect.

Question: For `Cc1ccc(-c2noc(C3CCN(C(=O)Nc4ccc(C#N)cc4)CC3)n2)o1`, which Potency is on record?
Answer: Its Potency is “inactive”.

Question: With `CC(=O)CC1(O)C(=O)N(CN2CCN(c3ccccc3)CC2)c2ccccc21` (centres undefined) as the molecule, how does the Potency read?
Answer: The Potency was inconclusive: 0.0828 µM [inhibitor, full curve, poor fit].

Question: For `N#CC1=C2SCC(O)(c3ccccc3)N2C(=O)CC1c1cccs1` (centres undefined), which Potency is on record?
Answer: The Potency was inconclusive: 0.329 µM [inhibitor, full curve, poor fit].

Question: With `CCc1ccc2nc(SCC(=O)N3CC(=O)Nc4ccccc43)c(C#N)cc2c1` as the molecule, how does the Potency read?
Answer: Its Potency is active: 11.7 µM.

Question: For `CC(=O)Cc1nsc(Nc2ccc(Cl)cc2)n1`, which Potency is on record?
Answer: Its Potency is “inactive”.

Question: For `S=C(NCCOCCOCCNC(=S)Nc1ccccc1)Nc1ccccc1`, which Potency is on record?
Answer: The Potency was “inactive”.

Question: With `COc1ccc2c(c1)c(/C=C/c1cc[n+](C)cc1)cn2C` as the molecule, how does the Potency read?
Answer: Its Potency is active: 0.37 µM.

Question: For `Cc1ccc(Nc2ccc(N3CCN(c4ccc([N+](=O)[O-])cc4)CC3)nn2)cc1`, which Potency is on record?
Answer: Its Potency is inconclusive: 4.15 µM [inhibitor, single point].

Question: Which Potency does the source give for `NC(=O)C1CCN(c2nc(-c3cccs3)cs2)CC1` here?
Answer: The Potency was “inactive”.

Question: Which Potency does the source give for `CC(O)(CS(=O)(=O)Cc1ccccc1)c1ccccc1` (centres undefined) here?
Answer: The Potency was inconclusive: 0.329 µM [inhibitor, full curve].

Question: Which Potency does the source give for `Cc1ccc(Cl)cc1NC(=O)NCc1ccccn1` here?
Answer: Its Potency is inconclusive: 10.4 µM [inhibitor, single point].

Question: For `CC(=O)Nc1cccc(C(=O)N2CCN(S(=O)(=O)c3ccc4ccccc4c3)CC2)c1`, which Potency is on record?
Answer: Its Potency is inconclusive: 8.28 µM [inhibitor, partial curve, poor fit].

Question: With `COC(=O)c1cc(S(=O)(=O)NCCc2sccc2C)c[nH]1` as the molecule, how does the Potency read?
Answer: The Potency was inconclusive: 18.5 µM [inhibitor, single point].

Question: With `CCC(C)(C)C1CCC2(CC1)NC(=O)N(CC(=O)NCCOc1ccccc1)C2=O` (centres undefined) as the molecule, how does the Potency read?
Answer: Its Potency is inconclusive: 2.62 µM [inhibitor, single point].

Question: Which Potency does the source give for `CCNC(=O)NC(=O)C(C)OC(=O)c1ccc(-n2nc(SC)sc2=S)cc1` (centres undefined) here?
Answer: Its Potency is inconclusive: 18.5 µM [inhibitor, single point].

Question: With `Cc1ccc(C(=O)N2CCCC(N3CCN(c4ccccc4C)CC3)C2)c(=O)[nH]1` (centres undefined) as the molecule, how does the Potency read?
Answer: The Potency was “inactive”.

Question: Which Potency does the source give for `CCC1CCCCN1C(=O)c1sc2ncnc(N(CC)CC)c2c1C` (centres undefined) here?
Answer: The Potency was inconclusive: 20.8 µM [inhibitor, partial curve, poor fit].

Question: For `Cc1csc(=O)n1CCC(=O)OCC(=O)N(CC(C)C)c1c(N)n(Cc2ccccc2)c(=O)[nH]c1=O`, which Potency is on record?
Answer: Its Potency is inconclusive: 9.28 µM [inhibitor, single point].

Question: Which Potency does the source give for `N/C(=N\OC(=O)c1ccc(Cl)cc1Cl)c1ccccc1` here?
Answer: The Potency was “inactive”.

Question: With `O=C1c2cnc3nc(SCc4cccc(Cl)c4)nn3c2CC2c3ccccc3CCN12` (centres undefined) as the molecule, how does the Potency read?
Answer: Its Potency is “inactive”.

Question: For `O=C(O)c1ccc(CS(=O)(=O)c2c(Cl)cccc2Cl)o1`, which Potency is on record?
Answer: The Potency was inconclusive: 4.65 µM [inhibitor, partial curve].

Question: With `Cc1ccccc1-n1nnnc1SCC(=O)NCC1(N2CCOCC2)CCCCC1` as the molecule, how does the Potency read?
Answer: Its Potency is inconclusive: 13.1 µM [inhibitor, single point].

Question: For `CC1CCCN(c2ccc(C(=O)OCC(=O)N3c4ccccc4Sc4ccccc43)cc2[N+](=O)[O-])C1` (centres undefined), which Potency is on record?
Answer: The Potency was inconclusive: 18.5 µM [inhibitor, single point].

Question: With `CCN(CC)S(=O)(=O)c1ccc(C(C)NC(=O)C2CCCN2C(=O)c2cccs2)cc1` (centres undefined) as the molecule, how does the Potency read?
Answer: Its Potency is inconclusive: 0.0029 µM [inhibitor, full curve, poor fit].

Question: For `CC(Sc1ncnc2sc(-c3ccccc3)cc12)C(=O)NCC1CCCO1` (centres undefined), which Potency is on record?
Answer: Its Potency is inconclusive: 18.5 µM [inhibitor, single point].

Question: For `Cc1ccccc1C(=O)c1cccn1CC(=O)NCc1ccccc1Cl`, which Potency is on record?
Answer: The Potency was inconclusive: 10.4 µM [inhibitor, single point].

Question: Which Potency does the source give for `O=C(Nc1nc(-c2ccc(Cl)s2)cs1)c1cccs1` here?
Answer: Its Potency is “inactive”.

Question: Which Potency does the source give for `COc1ccc(OC)c(-c2cc(C(=O)Nc3c(C)nn(Cc4ccc(Cl)cc4)c3C)no2)c1` here?
Answer: Its Potency is “inactive”.

Question: For `O=S(=O)(Nc1ccc2nc(N3CCOCC3)sc2c1)c1ccccc1`, which Potency is on record?
Answer: Its Potency is “inactive”.

Question: For `O=C(COc1ccc(Cl)cc1Cl)Nc1ccc(Cl)cn1`, which Potency is on record?
Answer: The Potency was inconclusive: 18.5 µM [inhibitor, single point].

Question: Which Potency does the source give for `O=C1CC(c2ccco2)CC(O)=C1C=Nc1ccccc1-c1ccccc1` (centres undefined) here?
Answer: Its Potency is inconclusive: 0.465 µM [inhibitor, full curve, poor fit].

Question: For `Cc1ccc(SCc2nc(N)nc(Nc3ccccc3C)n2)c(C)c1`, which Potency is on record?
Answer: Its Potency is inconclusive: 18.5 µM [inhibitor, single point].

Question: For `CC(=O)NCCC(=O)NCC1(N(C)Cc2ccccc2)Cc2ccccc2C1`, which Potency is on record?
Answer: The Potency was “inactive”.

Question: Which Potency does the source give for `CSc1nncc(/C(C)=N/O)n1` here?
Answer: The Potency was “inactive”.

Question: With `O=C(Nc1nc2c(s1)COc1ccccc1-2)c1cccs1` as the molecule, how does the Potency read?
Answer: Its Potency is inconclusive: 8.28 µM [inhibitor, partial curve, poor fit].

Question: Which Potency does the source give for `COC(=O)C1=C(C)OC(N)=C(C#N)C1c1c(C)nn(C)c1C` (centres undefined) here?
Answer: Its Potency is inconclusive: 16.5 µM [inhibitor, partial curve, poor fit].

Question: Which Potency does the source give for `Cn1c2ccc(Cl)cc2c2nc3ccccc3nc21` here?
Answer: The Potency was inconclusive: 0.928 µM [inhibitor, partial curve, poor fit].

Question: With `CCOC(=O)C1(c2ccccc2)CCN(CCC(=O)Nc2cccc(Br)c2)CC1` as the molecule, how does the Potency read?
Answer: The Potency was inconclusive: 8.28 µM [inhibitor, partial curve, poor fit].

Question: Which Potency does the source give for `CN(CC(=O)Nc1ccc(F)c(F)c1F)C(=O)c1cc(-c2ccncc2)nc2ccccc12` here?
Answer: The Potency was inconclusive: 13.1 µM [inhibitor, partial curve].

Question: For `Cc1nc(NC(=O)c2ccccc2)sc1-c1csc(NCc2ccco2)n1`, which Potency is on record?
Answer: Its Potency is inconclusive: 11.7 µM [inhibitor, partial curve, poor fit].

Question: Which Potency does the source give for `Cc1cnc(CNC(=O)CC2C(=O)NCCN2Cc2ccccc2F)cn1` (centres undefined) here?
Answer: The Potency was “inactive”.

Question: With `O=C(c1cccs1)N1CCC(c2nc3c(nnn3Cc3cccc(Cl)c3)c(=O)[nH]2)CC1` as the molecule, how does the Potency read?
Answer: Its Potency is “inactive”.

Question: For `CC(C)NC(=O)NC(=O)CSc1ccc(S(=O)(=O)N2CCOCC2)cn1`, which Potency is on record?
Answer: The Potency was inconclusive: 18.5 µM [inhibitor, single point].

Question: With `Cc1ccc(Cn2c(=N)c(C#N)cc3c(=O)n4cccc(C)c4nc32)cc1` as the molecule, how does the Potency read?
Answer: The Potency was active: 14.7 µM.

Question: Which Potency does the source give for `N#Cc1c(N)n(-c2cccc(O)c2)c2nc3ccccc3nc12` here?
Answer: Its Potency is inconclusive: 3.7 µM [inhibitor, partial curve].

Question: Which Potency does the source give for `COc1cc(/C=C(\C#N)c2nc3ccccc3n2C)cc(OC)c1O` here?
Answer: The Potency was inconclusive: 0.657 µM [inhibitor, full curve, poor fit].

Question: For `Cc1ccc(N(CC(=O)NCCSc2nc3ccccc3s2)S(=O)(=O)c2ccccc2)c(C)c1`, which Potency is on record?
Answer: Its Potency is inconclusive: 2.33 µM [inhibitor, full curve].

Question: Which Potency does the source give for `COc1ccccc1N1CCN(C(=O)c2ccc(NS(=O)(=O)c3ccc(C)cc3)cc2)CC1` here?
Answer: The Potency was “inactive”.

Question: Which Potency does the source give for `N#Cc1ccccc1CSc1nc2ccsc2c(=O)n1Cc1ccccn1` here?
Answer: Its Potency is inconclusive: 18.5 µM [inhibitor, single point].

Question: Which Potency does the source give for `O=C(C1CC(=O)N(c2ccccc2)C1)N1CCCCCC1` (centres undefined) here?
Answer: Its Potency is inconclusive: 11.7 µM [inhibitor, single point].

Question: With `O=C(NCCCN1CCCC1=O)C(=O)NCC1OCCN1S(=O)(=O)c1ccc(Br)cc1` (centres undefined) as the molecule, how does the Potency read?
Answer: Its Potency is inconclusive: 10.4 µM [inhibitor, partial curve, poor fit].

Question: For `CCc1ccc(-c2nc(SCC(=O)NC3CC3)n[nH]2)cc1`, which Potency is on record?
Answer: The Potency was “inactive”.

Question: For `CN(Cc1ccccc1)CC(O)COc1ccc(CNCCOc2cccnc2)cc1` (centres undefined), which Potency is on record?
Answer: The Potency was inconclusive: 18.5 µM [inhibitor, single point].

Question: For `Cn1cc(C(=O)N/N=C/c2ccc([N+](=O)[O-])cc2)c2ccccc21`, which Potency is on record?
Answer: The Potency was “inactive”.

Question: For `O=C(Cn1cnc(S(=O)(=O)N2CCOCC2)c1)Nc1ccc(OC(F)(F)F)cc1`, which Potency is on record?
Answer: The Potency was inconclusive: 14.7 µM [inhibitor, single point].

Question: For `Cc1cccc(C(=O)NCC(=O)OCC(=O)c2ccc(Cl)s2)c1`, which Potency is on record?
Answer: The Potency was “inactive”.

Question: Which Potency does the source give for `O=C(Cn1cnc2ccccc2c1=O)N(Cc1ccco1)c1ccc(O)cc1` here?
Answer: Its Potency is inconclusive: 18.5 µM [inhibitor, single point].

Question: With `O=C(Nc1ccccc1C(F)(F)F)Nc1cccc2ccccc12` as the molecule, how does the Potency read?
Answer: The Potency was “inactive”.

Question: For `COC(=O)c1ccc(C(NC(=O)OCc2ccccc2)/C(C)=C/[C@@H](C)C(=O)NCc2ccc(OC)c(OC)c2)cc1` (some centres undefined), which Potency is on record?
Answer: The Potency was active: 11.7 µM.

Question: Which Potency does the source give for `CCC(C)C1O[C@]2(C=CC1C)CC1CC(C/C=C(\C)[C@H](OC3CC(OC)C(O[C@H]4CC(OC)[C@@H](O)C(C)O4)C(C)O3)[C@@H](C)/C=C/C=C3\COC4C(O)C(C)=C[C@H](C(=O)O1)[C@@]34O)O2` (some centres undefined) here?
Answer: Its Potency is active: 13.5 µM.

Question: For `Cc1nc(NC(=O)CSc2nnc(Cn3nnc4ccccc43)n2C)sc1C`, which Potency is on record?
Answer: Its Potency is inconclusive: 18.5 µM [inhibitor, single point].

Question: With `Cn1nnnc1SCC(=O)N1CCCc2ccccc21` as the molecule, how does the Potency read?
Answer: Its Potency is “inactive”.

Question: With `COC(=O)c1ccc2c(=O)sc(N3CCC(C(N)=O)CC3)nc2c1` as the molecule, how does the Potency read?
Answer: The Potency was “inactive”.

Question: For `CCCn1c(Oc2ccccc2)nc2c1c(=O)n(C)c(=O)n2C`, which Potency is on record?
Answer: Its Potency is inconclusive: 11.7 µM [inhibitor, single point].

Question: Which Potency does the source give for `Cc1ccc(CCNC(=O)C2CCN(S(=O)(=O)c3c(C)nn(C)c3C)CC2)cc1` here?
Answer: The Potency was inconclusive: 5.22 µM [inhibitor, partial curve, poor fit].

Question: Which Potency does the source give for `O=C(CCc1nnc(C2CCCCC2)o1)N1CCN(c2ccccc2F)CC1` here?
Answer: Its Potency is inconclusive: 18.5 µM [inhibitor, single point].

Question: Which Potency does the source give for `COc1ccccc1N1CCN(S(=O)(=O)c2ccc(F)cc2)CC1` here?
Answer: The Potency was inconclusive: 11.7 µM [inhibitor, partial curve, poor fit].

Question: With `CN(Cc1ccccc1)C(=C(Cl)Cl)C(=C1NCCN1)[N+](=O)[O-]` as the molecule, how does the Potency read?
Answer: The Potency was “inactive”.

Question: Which Potency does the source give for `CC(=O)Nc1ccc2nc(CN3CCC(CO)(CCc4ccccc4)CC3)ccc2c1` here?
Answer: The Potency was “inactive”.
